Assay results published in paper PMC8274477.
No constants are given. Whether binding was seen depends on the method and setting. Some results given as binding are weak or reduced against the parent protein; the word gives no strength.

By UniProt entry, the sequences of proteins in these tests, tags left out.
UniProt Q14103: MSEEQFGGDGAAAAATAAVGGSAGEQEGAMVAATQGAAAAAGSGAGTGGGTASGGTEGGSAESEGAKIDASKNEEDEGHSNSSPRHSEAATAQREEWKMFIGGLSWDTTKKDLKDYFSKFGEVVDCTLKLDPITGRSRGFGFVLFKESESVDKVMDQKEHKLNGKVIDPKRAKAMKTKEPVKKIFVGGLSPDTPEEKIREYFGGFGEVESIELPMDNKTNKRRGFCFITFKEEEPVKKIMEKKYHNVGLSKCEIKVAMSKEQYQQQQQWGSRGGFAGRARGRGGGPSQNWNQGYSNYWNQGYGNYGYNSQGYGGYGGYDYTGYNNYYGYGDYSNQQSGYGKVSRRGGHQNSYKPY
UniProt Q9NYB9: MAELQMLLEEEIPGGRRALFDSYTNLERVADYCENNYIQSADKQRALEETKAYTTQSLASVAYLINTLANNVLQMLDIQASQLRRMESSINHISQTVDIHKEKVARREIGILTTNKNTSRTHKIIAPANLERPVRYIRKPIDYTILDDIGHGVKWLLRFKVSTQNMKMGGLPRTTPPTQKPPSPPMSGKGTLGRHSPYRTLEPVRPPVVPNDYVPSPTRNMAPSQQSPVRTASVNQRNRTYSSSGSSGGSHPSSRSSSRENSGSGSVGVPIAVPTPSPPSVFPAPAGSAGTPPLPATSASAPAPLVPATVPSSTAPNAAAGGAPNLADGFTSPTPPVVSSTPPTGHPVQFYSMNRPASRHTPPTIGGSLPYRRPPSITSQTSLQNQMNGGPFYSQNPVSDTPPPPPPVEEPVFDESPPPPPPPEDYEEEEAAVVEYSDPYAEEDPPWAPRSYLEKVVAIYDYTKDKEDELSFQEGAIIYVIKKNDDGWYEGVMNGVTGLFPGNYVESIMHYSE
UniProt P35712: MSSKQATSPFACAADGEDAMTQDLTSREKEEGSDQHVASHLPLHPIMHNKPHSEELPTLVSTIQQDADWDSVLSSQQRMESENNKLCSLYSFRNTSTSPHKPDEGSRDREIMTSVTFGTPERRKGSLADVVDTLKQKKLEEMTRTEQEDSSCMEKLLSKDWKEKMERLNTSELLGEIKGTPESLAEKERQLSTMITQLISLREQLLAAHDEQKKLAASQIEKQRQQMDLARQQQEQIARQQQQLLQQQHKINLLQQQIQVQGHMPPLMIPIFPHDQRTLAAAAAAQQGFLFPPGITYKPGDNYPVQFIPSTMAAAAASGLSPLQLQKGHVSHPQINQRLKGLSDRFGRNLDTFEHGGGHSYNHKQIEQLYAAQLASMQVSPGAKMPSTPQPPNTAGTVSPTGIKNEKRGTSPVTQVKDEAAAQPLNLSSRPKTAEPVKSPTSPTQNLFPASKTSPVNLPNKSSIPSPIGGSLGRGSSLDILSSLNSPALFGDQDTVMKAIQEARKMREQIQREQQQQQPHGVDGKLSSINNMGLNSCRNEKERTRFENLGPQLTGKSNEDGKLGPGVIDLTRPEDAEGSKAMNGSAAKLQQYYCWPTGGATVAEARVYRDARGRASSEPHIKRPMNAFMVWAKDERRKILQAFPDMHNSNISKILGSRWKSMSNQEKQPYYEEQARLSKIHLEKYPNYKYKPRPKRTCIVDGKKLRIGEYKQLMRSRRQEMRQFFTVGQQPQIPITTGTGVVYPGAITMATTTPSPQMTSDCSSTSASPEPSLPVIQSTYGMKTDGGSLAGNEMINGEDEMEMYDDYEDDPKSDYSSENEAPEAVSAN

How the values were obtained:
Assay in all cases: peptide or protein array; HuProt human proteome microarray; 5 ug/5 ml biotin-labelled LUBAC or OTULIN in solution, 1 h at room temperature; Cy5-streptavidin, scanned at 635 nm; BSA as negative control; hits: Z-score >= 3 and I_(Mean_Ratio) >= 1.4; both purified
C9orf9 (human) = biological target: T1, C9orf9 (human) (UniProt Q96E40)
T1 sequence: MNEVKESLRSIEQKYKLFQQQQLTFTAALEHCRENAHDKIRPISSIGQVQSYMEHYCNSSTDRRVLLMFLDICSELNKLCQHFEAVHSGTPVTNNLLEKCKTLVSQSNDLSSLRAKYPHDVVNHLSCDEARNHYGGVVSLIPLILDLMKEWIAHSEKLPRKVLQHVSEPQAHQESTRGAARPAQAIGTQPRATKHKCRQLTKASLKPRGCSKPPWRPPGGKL

MCCC2 (human) = biological target: T2, MCCC2 (human) (UniProt Q9HCC0)
T2 sequence: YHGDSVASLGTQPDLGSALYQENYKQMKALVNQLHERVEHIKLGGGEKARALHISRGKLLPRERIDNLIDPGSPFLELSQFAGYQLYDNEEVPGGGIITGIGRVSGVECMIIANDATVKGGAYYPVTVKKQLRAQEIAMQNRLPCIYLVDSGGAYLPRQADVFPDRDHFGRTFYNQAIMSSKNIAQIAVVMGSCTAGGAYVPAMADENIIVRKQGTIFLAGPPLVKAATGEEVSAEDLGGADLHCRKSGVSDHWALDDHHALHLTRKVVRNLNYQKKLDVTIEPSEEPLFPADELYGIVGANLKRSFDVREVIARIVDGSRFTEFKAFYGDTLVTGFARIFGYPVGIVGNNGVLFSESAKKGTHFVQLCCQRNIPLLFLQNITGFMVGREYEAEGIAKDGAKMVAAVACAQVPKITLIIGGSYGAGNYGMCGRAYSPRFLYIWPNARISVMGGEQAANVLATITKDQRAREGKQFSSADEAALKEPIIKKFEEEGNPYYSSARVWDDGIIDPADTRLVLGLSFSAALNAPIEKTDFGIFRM

HNRNPD (human) = HNRNPD (human) (UniProt Q14103)
[1] = biological target: ABI2 (spot on the microarray) (human) (UniProt Q9NYB9)
DLG3 (human) = biological target: T3, DLG3 (human) (UniProt Q92796)
T3 sequence: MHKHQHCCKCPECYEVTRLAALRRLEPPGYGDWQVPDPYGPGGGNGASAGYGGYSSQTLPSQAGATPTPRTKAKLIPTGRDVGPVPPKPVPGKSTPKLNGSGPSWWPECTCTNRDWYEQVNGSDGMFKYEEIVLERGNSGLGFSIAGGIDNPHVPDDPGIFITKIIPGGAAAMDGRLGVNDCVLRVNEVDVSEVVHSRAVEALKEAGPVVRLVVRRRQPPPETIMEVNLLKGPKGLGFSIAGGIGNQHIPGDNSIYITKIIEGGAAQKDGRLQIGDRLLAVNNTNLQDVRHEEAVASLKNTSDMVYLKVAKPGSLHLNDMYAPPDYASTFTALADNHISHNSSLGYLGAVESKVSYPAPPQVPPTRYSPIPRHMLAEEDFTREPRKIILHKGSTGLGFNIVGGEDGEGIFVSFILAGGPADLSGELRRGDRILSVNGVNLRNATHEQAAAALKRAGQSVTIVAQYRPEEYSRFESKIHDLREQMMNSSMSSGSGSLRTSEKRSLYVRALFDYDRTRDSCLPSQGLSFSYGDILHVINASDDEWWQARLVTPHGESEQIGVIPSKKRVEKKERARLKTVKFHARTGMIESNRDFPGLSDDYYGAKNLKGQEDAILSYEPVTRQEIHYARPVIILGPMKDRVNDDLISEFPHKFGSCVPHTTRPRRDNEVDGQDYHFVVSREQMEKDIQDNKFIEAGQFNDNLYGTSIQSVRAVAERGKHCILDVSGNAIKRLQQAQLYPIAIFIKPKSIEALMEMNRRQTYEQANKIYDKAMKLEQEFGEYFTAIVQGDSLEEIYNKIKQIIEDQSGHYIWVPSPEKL

MIF (human) = biological target: T4, MIF (human) (UniProt P14174)
T4 sequence: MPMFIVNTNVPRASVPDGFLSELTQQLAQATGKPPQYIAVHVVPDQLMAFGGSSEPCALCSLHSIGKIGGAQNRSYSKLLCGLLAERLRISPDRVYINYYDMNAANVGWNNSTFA

SOX6 (human) = SOX6 (human) (UniProt P35712)

Measured: binding

linear ubiquitin chain assembly complex (LUBAC), purified as HIS-tagged HOIP with the subunit HOIL-1, biotin-labelled (from UniProt Q96EP0 1-1072; Q9BYM8 1-510)
binds: all assays above
